This is an account of results in paper PMC4487770.

By UniProt entry, the sequences of proteins in these tests, tags left out.
UniProt Q9JK25: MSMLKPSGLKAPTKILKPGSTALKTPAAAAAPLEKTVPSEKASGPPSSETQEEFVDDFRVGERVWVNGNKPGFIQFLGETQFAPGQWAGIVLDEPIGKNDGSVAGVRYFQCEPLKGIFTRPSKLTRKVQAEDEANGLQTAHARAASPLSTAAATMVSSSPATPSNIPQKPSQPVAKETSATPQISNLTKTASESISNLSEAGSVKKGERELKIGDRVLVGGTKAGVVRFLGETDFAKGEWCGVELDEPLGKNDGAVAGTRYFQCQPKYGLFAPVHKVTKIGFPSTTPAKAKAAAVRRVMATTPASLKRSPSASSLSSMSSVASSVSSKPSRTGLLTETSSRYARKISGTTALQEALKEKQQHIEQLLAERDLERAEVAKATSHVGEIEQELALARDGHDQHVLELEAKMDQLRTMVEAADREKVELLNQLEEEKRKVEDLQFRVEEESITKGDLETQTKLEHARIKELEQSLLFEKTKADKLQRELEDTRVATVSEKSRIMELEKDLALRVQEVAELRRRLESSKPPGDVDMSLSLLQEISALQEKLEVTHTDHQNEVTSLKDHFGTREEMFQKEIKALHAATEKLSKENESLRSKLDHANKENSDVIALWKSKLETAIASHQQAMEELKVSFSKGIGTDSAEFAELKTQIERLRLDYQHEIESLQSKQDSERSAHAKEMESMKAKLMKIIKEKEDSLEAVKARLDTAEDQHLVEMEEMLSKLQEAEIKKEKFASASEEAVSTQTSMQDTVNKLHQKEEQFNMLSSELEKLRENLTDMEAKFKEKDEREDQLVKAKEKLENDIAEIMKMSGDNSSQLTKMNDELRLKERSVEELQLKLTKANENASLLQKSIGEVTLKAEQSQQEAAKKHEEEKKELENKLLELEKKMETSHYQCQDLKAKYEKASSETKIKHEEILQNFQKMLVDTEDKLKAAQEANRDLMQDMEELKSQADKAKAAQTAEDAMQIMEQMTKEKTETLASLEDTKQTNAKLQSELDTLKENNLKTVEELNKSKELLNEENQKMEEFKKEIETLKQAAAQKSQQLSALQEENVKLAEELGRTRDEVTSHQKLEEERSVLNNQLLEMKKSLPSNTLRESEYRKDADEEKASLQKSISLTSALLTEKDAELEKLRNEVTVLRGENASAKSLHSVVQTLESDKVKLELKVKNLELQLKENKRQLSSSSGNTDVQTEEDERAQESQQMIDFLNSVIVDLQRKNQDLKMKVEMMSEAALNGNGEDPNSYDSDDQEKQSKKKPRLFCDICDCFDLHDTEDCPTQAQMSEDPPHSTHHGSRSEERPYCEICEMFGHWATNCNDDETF
UniProt Q15691: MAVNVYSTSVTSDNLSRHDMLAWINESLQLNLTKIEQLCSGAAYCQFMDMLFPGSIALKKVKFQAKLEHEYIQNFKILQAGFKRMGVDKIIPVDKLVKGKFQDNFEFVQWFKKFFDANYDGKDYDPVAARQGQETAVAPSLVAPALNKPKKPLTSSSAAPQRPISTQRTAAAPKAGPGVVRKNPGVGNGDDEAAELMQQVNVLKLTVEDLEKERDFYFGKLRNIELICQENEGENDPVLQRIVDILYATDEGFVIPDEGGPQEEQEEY
UniProt Q14573: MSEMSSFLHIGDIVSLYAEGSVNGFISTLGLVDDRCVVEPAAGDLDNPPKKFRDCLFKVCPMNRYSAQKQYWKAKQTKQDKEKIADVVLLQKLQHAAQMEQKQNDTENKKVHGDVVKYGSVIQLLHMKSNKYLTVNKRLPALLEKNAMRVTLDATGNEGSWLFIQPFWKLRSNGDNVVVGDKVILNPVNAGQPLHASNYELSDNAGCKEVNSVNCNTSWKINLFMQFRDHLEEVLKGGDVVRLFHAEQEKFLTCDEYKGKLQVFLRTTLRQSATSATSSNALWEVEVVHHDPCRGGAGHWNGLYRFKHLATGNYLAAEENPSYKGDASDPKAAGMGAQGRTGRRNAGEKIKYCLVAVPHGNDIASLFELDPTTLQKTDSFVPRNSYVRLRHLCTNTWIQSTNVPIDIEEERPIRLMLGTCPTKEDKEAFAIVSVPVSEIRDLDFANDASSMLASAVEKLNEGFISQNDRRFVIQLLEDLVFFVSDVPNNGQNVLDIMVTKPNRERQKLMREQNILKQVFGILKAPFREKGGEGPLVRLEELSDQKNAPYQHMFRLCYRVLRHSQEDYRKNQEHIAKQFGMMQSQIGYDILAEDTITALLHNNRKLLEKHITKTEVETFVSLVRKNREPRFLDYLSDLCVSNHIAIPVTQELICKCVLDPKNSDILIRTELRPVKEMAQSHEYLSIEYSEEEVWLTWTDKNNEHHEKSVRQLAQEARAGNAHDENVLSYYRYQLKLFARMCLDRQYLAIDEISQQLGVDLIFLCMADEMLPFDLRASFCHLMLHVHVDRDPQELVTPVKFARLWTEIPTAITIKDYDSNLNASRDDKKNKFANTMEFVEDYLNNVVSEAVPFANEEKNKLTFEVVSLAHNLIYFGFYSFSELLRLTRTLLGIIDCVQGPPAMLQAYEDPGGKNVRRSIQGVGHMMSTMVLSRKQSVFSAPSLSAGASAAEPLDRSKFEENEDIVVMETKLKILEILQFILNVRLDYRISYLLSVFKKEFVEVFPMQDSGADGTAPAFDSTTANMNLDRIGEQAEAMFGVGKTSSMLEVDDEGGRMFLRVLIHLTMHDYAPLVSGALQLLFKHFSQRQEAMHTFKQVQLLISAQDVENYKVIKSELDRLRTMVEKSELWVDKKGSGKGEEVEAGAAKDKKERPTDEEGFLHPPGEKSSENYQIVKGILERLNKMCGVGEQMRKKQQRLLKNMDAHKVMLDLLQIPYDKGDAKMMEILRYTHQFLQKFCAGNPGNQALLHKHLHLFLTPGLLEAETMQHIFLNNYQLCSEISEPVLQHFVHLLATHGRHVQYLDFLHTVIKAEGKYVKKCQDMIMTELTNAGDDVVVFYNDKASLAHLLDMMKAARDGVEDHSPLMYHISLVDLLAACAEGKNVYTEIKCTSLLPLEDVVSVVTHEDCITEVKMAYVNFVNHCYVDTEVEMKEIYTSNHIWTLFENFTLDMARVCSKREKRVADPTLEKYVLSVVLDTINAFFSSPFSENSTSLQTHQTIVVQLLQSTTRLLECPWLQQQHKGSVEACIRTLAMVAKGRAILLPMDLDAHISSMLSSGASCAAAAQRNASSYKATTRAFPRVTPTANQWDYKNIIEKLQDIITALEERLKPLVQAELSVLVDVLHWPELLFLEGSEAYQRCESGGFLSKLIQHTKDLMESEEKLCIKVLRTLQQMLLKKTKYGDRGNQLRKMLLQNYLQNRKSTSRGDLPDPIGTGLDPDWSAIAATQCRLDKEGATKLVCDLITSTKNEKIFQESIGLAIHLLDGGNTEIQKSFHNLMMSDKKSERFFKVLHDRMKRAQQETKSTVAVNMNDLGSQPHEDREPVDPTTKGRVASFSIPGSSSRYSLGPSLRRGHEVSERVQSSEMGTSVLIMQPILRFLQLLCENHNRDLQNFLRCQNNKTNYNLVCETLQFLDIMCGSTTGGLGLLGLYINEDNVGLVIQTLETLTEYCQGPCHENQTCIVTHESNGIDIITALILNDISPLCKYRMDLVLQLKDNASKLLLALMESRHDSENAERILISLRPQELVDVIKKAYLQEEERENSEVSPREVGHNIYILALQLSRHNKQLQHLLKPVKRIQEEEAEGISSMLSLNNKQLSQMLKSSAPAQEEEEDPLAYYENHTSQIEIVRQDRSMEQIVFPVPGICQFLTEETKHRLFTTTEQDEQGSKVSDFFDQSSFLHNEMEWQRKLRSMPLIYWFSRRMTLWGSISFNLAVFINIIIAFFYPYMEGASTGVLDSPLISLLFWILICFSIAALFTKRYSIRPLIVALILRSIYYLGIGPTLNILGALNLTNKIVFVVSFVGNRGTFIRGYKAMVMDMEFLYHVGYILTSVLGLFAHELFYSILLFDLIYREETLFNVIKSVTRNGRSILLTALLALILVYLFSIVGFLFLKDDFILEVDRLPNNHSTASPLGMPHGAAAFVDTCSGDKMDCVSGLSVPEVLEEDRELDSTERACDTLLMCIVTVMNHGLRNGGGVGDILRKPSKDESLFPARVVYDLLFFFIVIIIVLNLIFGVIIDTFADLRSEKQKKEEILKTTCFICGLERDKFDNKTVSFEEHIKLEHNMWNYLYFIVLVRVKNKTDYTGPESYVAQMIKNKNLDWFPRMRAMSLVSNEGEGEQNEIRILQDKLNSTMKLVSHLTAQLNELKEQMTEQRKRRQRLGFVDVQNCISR

Assay [1] concerns the target mRFP-(rat)CLIP-170 (expressed in HLMVECs) (rat) (UniProt Q9JK25). Nature of the assay: FRET or BRET; intact HLMVECs expressing GFP-IP3R3 (donor) with EB3-mRFP or mRFP-CLIP-170 (acceptor); quenching of GFP at microtubule tips and recovery of donor fluorescence after focal acceptor photobleaching.
Assay [2] concerns the target (His6)-EB1, end-binding protein 1 (UniProt Q15691). The experiment in a line: pull-down; (His6)-EB proteins expressed in bacteria, covalently bound to Ni-NTA resin; lysates from HEK cells expressing GFP-tagged proteins; western blot for GFP; only the target purified. (A western blot detects proteins with antibodies after separation by electrophoresis.)

Results are given in words; binding and its absence hold for the method and conditions named. In cells and extracts the contact can be indirect. Some binding calls cover weakened binding; strength is not graded here.

For the substance “GFP-IP3R3 (expressed in HLMVECs) (from UniProt Q14573 1-2671) (receptor)”, the binding entry in assay [1] is “no binding”.

On to “GFP-IP3R3, inositol 1,4,5-trisphosphate receptor type 3 (HEK cell lysate) (from UniProt Q14573 1-2671)”, for which, in assay [2], the binding result is on record as “binds”.
